Experimental findings from publication PMC7099064 are described below.

The chains behind the UniProt entries cited, without tags or fusion partners.
UniProt Q13526: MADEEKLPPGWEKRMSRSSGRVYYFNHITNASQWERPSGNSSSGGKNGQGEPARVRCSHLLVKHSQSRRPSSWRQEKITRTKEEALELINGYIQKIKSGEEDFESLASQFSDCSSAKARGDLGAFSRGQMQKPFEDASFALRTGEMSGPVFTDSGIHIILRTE

No constants are given. Whether binding was seen depends on the method and setting. In cells and extracts the contact can be indirect. Some entries that bind do so weakly or less than the wild type.

For the experiment, the target named is GST-Pin1 (UniProt Q13526). Put plainly: pull-down; GST or GST-Pin1-linked beads incubated with brain lysates from WT or Kv4.2TA mice given saline or PTZ; blot for Kv4.2; only the target purified.

B1: Kv4.2, endogenous in mouse brain and cultured mouse neurons (protein, UniProt Q9Z0V2 1-630)
chain: MAAGVAAWLPFARAAAIGWMPVASGPMPAPPRQERKRTQDALIVLNVSGTRFQTWQDTLERYPDTLLGSSERDFFYHPETQQYFFDRDPDIFRHILNFYRTGKLHYPRHECISAYDEELAFFGLIPEIIGDCCYEEYKDRRRENAERLQDDADTDNTGESALPTMTARQRVWRAFENPHTSTMALVFYYVTGFFIAVSVIANVVETVPCGSSPGHIKELPCGERYAVAFFCLDTACVMIFTVEYLLRLAAAPSRYRFVRSVMSIIDVVAILPYYIGLVMTDNEDVSGAFVTLRVFRVFRIFKFSRHSQGLRILGYTLKSCASELGFLLFSLTMAIIIFATVMFYAEKGSSASKFTSIPAAFWYTIVTMTTLGYGDMVPKTIAGKIFGSICSLSGVLVIALPVPVIVSNFSRIYHQNQRADKRRAQKKARLARIRAAKSGSANAYMQSKRNGLLSNQLQSSEDEPAFISKSGSSFETQHHHLLHCLEKTTNHEFVDEQVFEESCMEVATVNRPSSHSPSLSSQQGVTSTCCSRRHKKTFRIPNANVSGSHRGSVQELSTIQIRCVERTPLSNSRSSLNAKMEECVKLNCEQPYVTTAIISIPTPPVTTPEGDDRPESPEYSGGNIVRVSAL
Take B1: the binding entry is on record as “binds”.
